The list shows only some results of the screen, not a fair sample: it gathers tests that were run many times, whatever their T/C, doses with no T/C, and many T/C values between a quarter and a half above the control. Further doses and runs are listed elsewhere. T/C gives the treated animals as a percentage of the vehicle group. Some entries give survivors of the animals treated and no T/C: the source files T/C as zero there, which appears to mark a toxic dose or a test without result, not a measured value. Some doses without a T/C left all or most animals alive at the check, yet need not have been tolerated: survival well below the control is almost never listed, so the zero probably covers shortened survival too. Counts of survivors are from the toxicity check (mostly the fifth day) where no day follows; animals may have died later. Schedules are NCI's codes, taken here to give the interval after Q, in days (D) or hours (H), and the number of doses after X. Some entries hold several experiments; the values are given in rising order. For survival time, the PubChem record calls one and a half times the control and up active, and a quarter to a half above the control has no call in these data; cut-offs in other NCI protocols can differ. Some schedules carry Z or #; the key to these is not given. Some T/C values carry the count of animals alive at the toxicity check (mostly the fifth day); where none is given, no animal had died by that day.
System: CD2F1 mice, L1210 leukemia ip, survival T/C
Assay: NCI In Vivo Anticancer Drug Screen. Data for tumor model L1210 Leukemia (intraperitoneal) in CD2F1 (CDF1) mice
Settings: higher T/C = longer survival
Method in brief: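 Tumor-bearing mice (transplanted tumor) were split into treated and vehicle control groups, and the measured endpoint of each treated group was divided by that of its vehicle controls.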

[1] = T/C endpoint: mean survival time, dose: 200.0 mg/kg/injection, schedule: Q04DX003 (ip), vehicle: saline with Tween-80
[2] = T/C endpoint: mean survival time, dose: 400.0 mg/kg/injection, schedule: Q04DX003 (ip), vehicle: saline with Tween-80
[3] = T/C endpoint: mean survival time, dose: 25.0 mg/kg/injection, schedule: Q01DX009 (ip), vehicle: saline with Tween-80
[4] = T/C endpoint: mean survival time, dose: 200.0 mg/kg/injection, schedule: Q04DX003 (ip), vehicle: saline sonified
[5] = T/C endpoint: mean survival time, dose: 400.0 mg/kg/injection, schedule: Q04DX003 (ip), vehicle: saline sonified

Compound: CCN(CC)CC(COC)Oc1cc(C)ccc1C(C)C (centres undefined)
- survivor count (T/C endpoint: mean survival time, dose: 400.0 mg/kg/injection, schedule: Q04DX003 (ip), vehicle: Klucel (hydroxypropylcellulose) (HPC)): 6 of 6

Compound: CN(C)c1ccc(N=O)cc1
- survivor count (T/C endpoint: median survival time, dose: 12.5 mg/kg/injection, schedule: Q04DX002 (ip), vehicle: saline with Tween-80): 3 of 3
- survivor count (T/C endpoint: median survival time, dose: 25.0 mg/kg/injection, schedule: Q04DX002 (ip), vehicle: saline with Tween-80): 2 of 3
- survivor count (T/C endpoint: median survival time, dose: 50.0 mg/kg/injection, schedule: Q04DX002 (ip), vehicle: saline with Tween-80): 0 of 3
- survivor count (T/C endpoint: median survival time, dose: 100.0 mg/kg/injection, schedule: Q04DX002 (ip), vehicle: saline with Tween-80): 0 of 3

Compound: COc1ccccc1C1=CCCCCC1
- survivor count (T/C endpoint: mean survival time, dose: 400.0 mg/kg/injection, schedule: Q01DX009 (ip), vehicle: saline with Tween-80): 6 of 6

Compound: COc1ccc(CC(N)C(=O)OCc2ccccc2)cc1N(CCCl)CCCl (centres undefined)
- T/C (T/C endpoint: mean survival time, dose: 0.7 mg/kg/injection, schedule: Q01DX009 (ip), vehicle: saline): 130 % of control
- T/C (T/C endpoint: mean survival time, dose: 1.5 mg/kg/injection, schedule: Q01DX009 (ip), vehicle: saline): 144 % of control

Compound: CC1(CNC(=O)C(=O)NCC2(C)CO2)CO1 (centres undefined)
- T/C (T/C endpoint: mean survival time, dose: 10.0 mg/kg/injection, schedule: Q01DX010 (ip), vehicle: saline): 136 % of control
- T/C (T/C endpoint: mean survival time, dose: 44.0 mg/kg/injection, schedule: Q01DX Z (ip), vehicle: saline): 130 % of control
- T/C (T/C endpoint: mean survival time, dose: 66.0 mg/kg/injection, schedule: Q01DX Z (ip), vehicle: saline): 140 % of control
- T/C (T/C endpoint: mean survival time, dose: 100.0 mg/kg/injection, schedule: Q01DX Z (ip), vehicle: saline): 148 % of control
- survivor count (T/C endpoint: mean survival time, dose: 338.0 mg/kg/injection, schedule: Q01DX010 (ip), vehicle: saline): 0 of 6

Compound: CCCCn1cnc2c(SSc3ncnc4c3ncn4CCCC)ncnc21
- T/C (T/C endpoint: mean survival time, dose: 166.0 mg/kg/injection, schedule: Q04DX003 (ip), vehicle: saline with Tween-80): 133 % of control [4 of 6 alive]
- T/C [1]: 127 [4 of 6 alive] and 132 % of control [5 of 6 alive]
- T/C [2]: 135 % of control [5 of 6 alive]

Compound: COc1ccc2[nH]c3c(C)c4cc[n+](C)cc4c(C)c3c2c1
- T/C (T/C endpoint: mean survival time, dose: 16.5 mg/kg/injection, schedule: Q04DX003 (ip), vehicle: saline sonified): 130 % of control
- survivor count [3]: 5 of 6
- survivor count (T/C endpoint: mean survival time, dose: 100.0 mg/kg/injection, schedule: Q04DX003 (ip), vehicle: saline sonified): 1 of 6
- survivor count [4]: 2 of 6
- survivor count [5]: 0 of 6

Compound: O=c1ccn(C2OC(CO)C3[O][Sn]([c]4ccccc4)([c]4ccccc4)[O]C32)c(=O)[nH]1 (centres undefined)
- survivor count (T/C endpoint: mean survival time, dose: 25.0 mg/kg/injection, schedule: Q01DX005 (ip), vehicle: other): 0 of 6 and 1 of 6
- survivor count (T/C endpoint: mean survival time, dose: 50.0 mg/kg/injection, schedule: Q01DX005 (ip), vehicle: other): 0 of 6
- survivor count (T/C endpoint: mean survival time, dose: 100.0 mg/kg/injection, schedule: Q01DX005 (ip), vehicle: other): 0 of 6
- survivor count (T/C endpoint: mean survival time, dose: 200.0 mg/kg/injection, schedule: Q01DX005 (ip), vehicle: other): 0 of 6

Compound: O=C1C=C(c2ccccc2)C(O)(c2ccccc2)/C1=C/c1ccccc1 (centres undefined)
- survivor count (T/C endpoint: mean survival time, dose: 25.0 mg/kg/injection, schedule: Q04DX002 (ip), vehicle: saline with Tween-80): 3 of 3
- survivor count (T/C endpoint: mean survival time, dose: 50.0 mg/kg/injection, schedule: Q04DX002 (ip), vehicle: saline with Tween-80): 3 of 3
- survivor count (T/C endpoint: mean survival time, dose: 100.0 mg/kg/injection, schedule: Q04DX002 (ip), vehicle: saline with Tween-80): 3 of 3
- survivor count (T/C endpoint: mean survival time, dose: 400.0 mg/kg/injection, schedule: Q04DX002 (ip), vehicle: saline with Tween-80): 0 of 3

Compound: O=C(NC(CSCc1ccccc1)C(=O)O)OCc1ccccc1 (centres undefined)
- survivor count [2]: 3 of 6

Compound: O=C(COc1ccccc1)N/N=C/c1cccc([N+](=O)[O-])c1
- survivor count (T/C endpoint: mean survival time, dose: 100.0 mg/kg/injection, schedule: Q01DX009 (ip), vehicle: saline with Tween-80): 6 of 6

Compound: CCC[CH2][Sn]([CH2]CCC)([n]1cncn1)[n]1cncn1
- survivor count (T/C endpoint: mean survival time, dose: 25.0 mg/kg/injection, schedule: Q04DX003 (ip), vehicle: saline with Tween-80): 0 of 6
- survivor count (T/C endpoint: mean survival time, dose: 50.0 mg/kg/injection, schedule: Q04DX003 (ip), vehicle: saline with Tween-80): 0 of 6

Compound: CC(C)n1cnc2c(=S)nc[nH]c21
- T/C (T/C endpoint: mean survival time, dose: 50.0 mg/kg/injection, schedule: Q01DX Z (ip), vehicle: saline): 127 % of control
- T/C (T/C endpoint: mean survival time, dose: 140.0 mg/kg/injection, schedule: Q01DX Z (ip), vehicle: saline): 141 % of control

Compound: [C-]#[O+].[C-]#[O+].[C-]#[O+].[C-]#[O+].[CH3][Sn]([CH3])[CH3].[Co]
- survivor count (T/C endpoint: mean survival time, dose: 0.19 mg/kg/injection, schedule: Q01DX009 (ip), vehicle: saline): 1 of 3
- survivor count (T/C endpoint: mean survival time, dose: 0.39 mg/kg/injection, schedule: Q01DX009 (ip), vehicle: saline): 0 of 3
- survivor count (T/C endpoint: mean survival time, dose: 1.56 mg/kg/injection, schedule: Q01DX009 (ip), vehicle: saline): 0 of 3
- survivor count (T/C endpoint: mean survival time, dose: 6.25 mg/kg/injection, schedule: Q01DX009 (ip), vehicle: saline): 0 of 3
- survivor count (T/C endpoint: mean survival time, dose: 12.5 mg/kg/injection, schedule: Q01DX009 (ip), vehicle: saline): 0 of 3
- survivor count (T/C endpoint: mean survival time, dose: 25.0 mg/kg/injection, schedule: Q01DX009 (ip), vehicle: saline): 0 of 3

Compound: C[C@]12CC[C@H](O)C[C@@]1(O)CC[C@@H]1[C@@H]2CC[C@]2(C)[C@@H](c3ccc(=O)oc3)C[C@H]3O[C@]132
- survivor count (T/C endpoint: mean survival time, dose: 20.0 mg/kg/injection, schedule: Q01DX009 (ip), vehicle: other): 0 of 6

Compound: O=c1scc(-c2ccc(C(F)(F)F)cc2)s1
- survivor count (T/C endpoint: mean survival time, dose: 50.0 mg/kg/injection, schedule: Q01DX009 (ip), vehicle: Klucel (hydroxypropylcellulose) (HPC)): 6 of 6

Compound: C1CNCCNCCNCCN1
- survivor count (T/C endpoint: mean survival time, dose: 200.0 mg/kg/injection, schedule: Q01DX009 (ip), vehicle: water): 0 of 6

Compound: Cn1c(C(O)c2cccnc2)c(CN2CCCCC2)c2ccccc21 (centres undefined)
- survivor count (T/C endpoint: mean survival time, dose: 400.0 mg/kg/injection, schedule: Q01DX001 (ip), vehicle: saline with Tween-80): 1 of 3

Compound: CC(=O)Nc1nc(Br)c2ccccc2c1-c1ccc(N(CCCl)CCCl)cc1
- survivor count (T/C endpoint: mean survival time, dose: 50.0 mg/kg/injection, schedule: Q04DX003 (ip), vehicle: DMSO): 4 of 6

Compound: O=[N+]([O-])c1c[n+]([O-])ccc1Cl
- survivor count (T/C endpoint: mean survival time, dose: 20.0 mg/kg/injection, schedule: Q01DX001 (ip), vehicle: saline): 4 of 6
- survivor count (T/C endpoint: mean survival time, dose: 40.0 mg/kg/injection, schedule: Q01DX001 (ip), vehicle: saline): 5 of 6
- survivor count (T/C endpoint: mean survival time, dose: 80.0 mg/kg/injection, schedule: Q01DX001 (ip), vehicle: saline): 0 of 6

Compound: COc1cc2cc3c(c(O)c2c(O)c1/C=C/C(C)C)C(=O)CC(C)(OC(C)=O)C3 (centres undefined)
- survivor count (T/C endpoint: median survival time, dose: 40.0 mg/kg/injection, schedule: Q01DX009 (ip), vehicle: Klucel (hydroxypropylcellulose) (HPC)): 5 of 6
- survivor count (T/C endpoint: median survival time, dose: 80.0 mg/kg/injection, schedule: Q01DX009 (ip), vehicle: Klucel (hydroxypropylcellulose) (HPC)): 3 of 6
- survivor count (T/C endpoint: median survival time, dose: 160.0 mg/kg/injection, schedule: Q01DX009 (ip), vehicle: Klucel (hydroxypropylcellulose) (HPC)): 0 of 6

Compound: Cc1ccc(-n2c(=S)[nH]c3ccc(C)cc3c2=O)cc1
- survivor count (T/C endpoint: mean survival time, dose: 3.13 mg/kg/injection, schedule: Q01DX009 (ip), vehicle: saline with Tween-80): 6 of 6
- survivor count (T/C endpoint: mean survival time, dose: 6.25 mg/kg/injection, schedule: Q01DX009 (ip), vehicle: saline with Tween-80): 6 of 6
- survivor count (T/C endpoint: mean survival time, dose: 12.5 mg/kg/injection, schedule: Q01DX009 (ip), vehicle: saline with Tween-80): 6 of 6
- survivor count [3]: 5 of 6

Compound: COC(=O)c1cn(C2OC(CO)C(O)C2O)c2ncnc(N)c12 (centres undefined)
- T/C (T/C endpoint: mean survival time, dose: 25.0 mg/kg/injection, schedule: Q01DX009 (ip), vehicle: water): 136 % of control

Compound: C=CC[n+]1ccc2ccccc2c1
- survivor count [4]: 0 of 6
- survivor count [5]: 0 of 6

Compound: O=C1OCC/C1=C/c1cccc(O)c1
- survivor count (T/C endpoint: mean survival time, dose: 12.5 mg/kg/injection, schedule: Q04DX002 (ip), vehicle: Klucel (hydroxypropylcellulose) (HPC)): 3 of 3

Compound: Cc1cc(NC(C)CN(C)C)nc(/N=C(\N)Nc2ccc(Cl)c(Cl)c2)n1 (centres undefined)
- survivor count [1]: 2 of 6
- survivor count [2]: 0 of 6

Compound: C=CC1CC[N-]CC1.C=CC1CC[N-]CC1.C=CC1CC[N-]CC1.[Cl][Cr]([Cl])[Cl]
- survivor count (T/C endpoint: mean survival time, dose: 200.0 mg/kg/injection, schedule: Q04DX003 (ip), vehicle: saline): 0 of 6
- survivor count (T/C endpoint: mean survival time, dose: 400.0 mg/kg/injection, schedule: Q04DX003 (ip), vehicle: saline): 0 of 6

— PubChem BioAssay AID256 (DTP/NCI, 2004)
